# Measured values: PubChem BioAssay AID1671190 (National Center for Advancing Translational Sciences (NCATS), 2021)
# Amino acid sequences for entries named in this document (tags omitted). A change or cut given only in a name is not applied to a line headed by its entry.
# UniProt P18054: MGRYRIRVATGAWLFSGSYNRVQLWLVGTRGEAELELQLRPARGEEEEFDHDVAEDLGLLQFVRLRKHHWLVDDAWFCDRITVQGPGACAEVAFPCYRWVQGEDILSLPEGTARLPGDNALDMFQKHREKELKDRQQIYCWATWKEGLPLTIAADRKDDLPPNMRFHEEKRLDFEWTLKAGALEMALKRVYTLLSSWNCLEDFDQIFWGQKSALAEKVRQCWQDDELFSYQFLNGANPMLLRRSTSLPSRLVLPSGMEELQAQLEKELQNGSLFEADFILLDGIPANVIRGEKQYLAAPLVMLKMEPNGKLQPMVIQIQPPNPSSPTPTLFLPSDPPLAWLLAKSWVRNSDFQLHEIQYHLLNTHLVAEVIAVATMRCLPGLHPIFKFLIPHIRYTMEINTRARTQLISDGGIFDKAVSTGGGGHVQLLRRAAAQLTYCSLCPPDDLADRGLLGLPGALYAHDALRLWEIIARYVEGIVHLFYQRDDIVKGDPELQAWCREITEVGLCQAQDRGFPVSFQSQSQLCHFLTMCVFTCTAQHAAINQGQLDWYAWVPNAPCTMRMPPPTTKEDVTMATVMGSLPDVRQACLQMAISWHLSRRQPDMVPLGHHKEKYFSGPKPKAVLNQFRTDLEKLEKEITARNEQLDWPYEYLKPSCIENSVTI
# Hit rate of the full screen: of about 580,000 compounds, about 6,100 (1.1%) were called active. Inconclusive results, whose numbers are uncertain, are shown with a selection of clear calls. Calls come from the whole dose curve; as a rule, active = well fitted inhibition curve with a large enough effect; inconclusive = small, poorly fitted or top-dose-only effect, or another doubt; inactive = no such curve, though single readings can be large or run the other way. A potency beside an inconclusive call is a rough fit, not a confirmed value.
# Target: Polyunsaturated fatty acid lipoxygenase ALOX12 (Homo sapiens) (UniProt P18054)
# Assay: Primary qHTS assay for inhibitors of human arachidonate 12S-lipoxygenase (ALOX12): Round 2
# Conditions: purified 12hLO, xylenol orange hydroperoxide absorbance; activity change, negative = inhibition: at 108 µM (top of the series) unless noted
# Procedure, shortened: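 Purified human 12hLO (150 nM final) in 25 mM Hepes, 0.01% Triton X-100, pH 7.0 was preincubated 15 min at room temperature with compound. Then 40 uM arachidonic acid was added, 30 min. Hydroperoxide was read by Fe-XO absorbance ratio 573/405 nm.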
# % is set by controls: 0 for no effect and ±100 for the full control effect; potency is the fitted concentration of half-maximal effect.
SMILES,Potency,"activity change, negative = inhibition"
O=C(OCC(=O)C12CC3CC(CC(C3)C1)C2)c1cnccn1,"inconclusive: 44.7 µM [inhibitor, partial curve]",
COC(=O)C1=CN(Cc2ccc(OC)cc2)C=C(C(=O)OC)C1c1cccs1,"inconclusive: 126 µM [inhibitor, partial curve, poor fit]",
CC(C)(C)[C@@H]1C=C(C(=O)O)O[C@H](OCCCCO)C1,"inconclusive: 44.7 µM [inhibitor, full curve, poor fit]",
O=C(N/N=C/c1ccccc1Cl)c1ccc(Cl)s1,"inconclusive: 0.251 µM [inhibitor, full curve, poor fit]",
O=C(CN1C(=O)NC(c2ccc(Cl)cc2)C2=C1COC2=O)NCCc1ccc(Cl)cc1 (configuration not stated),"inconclusive: 17.8 µM [inhibitor, full curve]",
COCC(=O)Oc1c(Sc2ccc(C)cc2)c(C)nn1C(C)(C)C,"inconclusive: 100 µM [inhibitor, partial curve, poor fit]",
COc1cc(-c2ccno2)ccc1S(=O)(=O)N1CCN(c2cc(C)ccc2C)CC1,inactive,
Cc1nc2ncnn2c(N(C)Cc2ccccc2)c1Cc1ccccc1,inactive,
Cn1cc(CN2C[C@@H](F)[C@@H](OCc3nc4ccc(F)cc4[nH]3)C2)cn1,inactive,
O=C(Cc1ccsc1)Nc1ccc(Br)cc1F,"inconclusive: 7.94 µM [inhibitor, full curve]",
CCOc1ccccc1C(=O)N[C@H](C(=O)O)C(C)C,"inconclusive: 31.6 µM [inhibitor, partial curve, poor fit]",
COc1ccc(Oc2c(C)oc3cc(OCC(=O)N4CCNC(=O)C4)ccc3c2=O)cc1,inactive,
Cc1ccc(NNC(=O)C(=O)N2CCCCC2)cc1,"inconclusive: 56.2 µM [inhibitor, partial curve, poor fit]",
Nc1nc(Cl)nc(Nc2cccc(Cl)c2)c1[N+](=O)[O-],"inconclusive: 35.5 µM [inhibitor, partial curve, poor fit]",
S=C(NCCc1ccccc1)NN=C1CCCCCC1,"inconclusive: 50.1 µM [inhibitor, partial curve, poor fit]",
COC(=O)c1ccc(C(=O)NCc2ccc(OC)cc2)cc1,inactive,
CC(=O)N1CC2(CC(c3ccccc3F)=NO2)CN1c1ccc(Cl)cc1 (configuration not stated),"inconclusive: 141 µM [inhibitor, single point]",
Cc1cc(-c2n[nH]c(=S)n2/N=C/C(Br)=C/c2ccccc2)n[nH]1,"inconclusive: 50.1 µM [inhibitor, partial curve, poor fit]",
Cc1noc(C)c1Cc1ccc(C(=O)N2CC(N(Cc3cccnc3)CC(C)C)C2)o1,inactive,
c1ccc(-c2nc(-c3ccco3)n3ccccc23)cc1,"inconclusive: 5.62 µM [inhibitor, full curve]",
COc1ccc(-c2c(C(=O)O)sc3c2NC(=O)CC32C(=O)N(C)c3ccc(C(C)C)cc32)cc1 (configuration not stated),inactive,
COc1ccc2c(c1)CCN=C2C[C@H]1CN(C(=O)c2cccs2)CC[C@H]1CC(=O)O,"inconclusive: 22.4 µM [inhibitor, full curve, poor fit]",
CN(C)c1ncc2nc(-c3cccs3)c(=O)n(-c3ccccc3)c2n1,inactive,

SMILES,Potency,"activity change, negative = inhibition"
O=C(COC(=O)c1cccc(O)c1)c1ccccc1,"inconclusive: 17.8 µM [inhibitor, full curve]",
Cc1c(Cl)cccc1-c1ccc(CNc2ccc3[nH]c(=O)[nH]c3c2)o1,"inconclusive: 100 µM [inhibitor, partial curve, poor fit]",
O=C(CSc1nc2ccccc2c(=O)[nH]1)c1ccc(O)c(O)c1,"inconclusive: 0.199 µM [inhibitor, full curve, poor fit]",
COc1cccc(C(=O)/C(=C/c2ccccn2)c2nc3ccccc3o2)c1,"inconclusive: 39.8 µM [inhibitor, partial curve, poor fit]",
Cc1ccc(CCNC(=O)c2cc3sccc3n2Cc2ccc(C)cc2)cc1,inactive,
Cc1ccc(-c2noc([C@@H]3C[C@@H](O)CN3Cc3ccc(C(=O)O)cc3)n2)cc1F,"inconclusive: 79.4 µM [inhibitor, partial curve, poor fit]",
Cc1ccc(NC(=O)[C@H](NC(=O)[C@@H]2Cc3ccccc3CN2)c2ccccc2)cc1C,inactive,
COc1ccc(CC(=O)Nc2cccc(-c3csc(C)n3)c2)cc1,"inconclusive: 112 µM [inhibitor, single point]",
CCSc1nc2c(c(=O)[nH]c(=O)n2C)n1CC(O)COc1ccccc1C (configuration not stated),"inconclusive: 39.8 µM [inhibitor, partial curve, poor fit]",
Cc1c(Cl)ccc2sc(NC(=O)c3ccc(S(=O)(=O)N4CCCc5ccccc54)cc3)nc12,"inconclusive: 44.7 µM [inhibitor, full curve, poor fit]",
O=S(=O)(c1ccc2ccccc2c1)N(CC(O)COCc1ccco1)c1ccccc1 (configuration not stated),inactive,
O=C(CCCCC(=O)OCC(=O)c1ccc(Br)cc1)OCC(=O)c1ccc(Br)cc1,"inconclusive: 141 µM [inhibitor, single point]",
O=C(C1=C(O)C(=O)N(CCN2CCOCC2)C1c1cccs1)c1cc2ccccc2o1 (configuration not stated),active: 7.08 µM,
Cc1occc1C(=O)N1CC(F)(F)C[C@H]1c1nnc(C2CC2)o1,"inconclusive: 22.4 µM [inhibitor, partial curve, poor fit]",
Cc1c(Cl)cn2c(=O)cc(CN3CCN(c4ccccc4)CC3)nc2c1Cl,inactive,
Cc1cc(C)cc(-n2c(SCC(=O)N3CCCCC3)nc3c([nH]c4ccccc43)c2=O)c1,"inconclusive: 158 µM [inhibitor, partial curve, poor fit]",
COc1cc2cc(CN(Cc3nnnn3Cc3ccco3)C3CCCCC3)c(=O)[nH]c2cc1OC,"inconclusive: 44.7 µM [inhibitor, single point]",
CC(OC(=O)c1cccc(-n2cnnn2)c1)C(=O)Nc1cccc(Cl)c1 (configuration not stated),"inconclusive: 44.7 µM [inhibitor, partial curve, poor fit]",
Cc1nn(-c2ccccc2)c2c1C(c1c(C)[nH]c(C#N)c1C)C(C#N)=C(N)O2 (configuration not stated),"inconclusive: 100 µM [inhibitor, partial curve, poor fit]",
O=C(CSc1nc2ccccc2o1)Nc1ccccc1Oc1ccccc1,"inconclusive: 70.8 µM [inhibitor, partial curve, poor fit]",
COc1ccc(C(=O)/C(=C/c2ccccn2)c2nc3ccccc3o2)cc1,inactive,
COc1ccc(/C=C2\CCc3ccccc3C2=O)cc1O,"inconclusive: 70.8 µM [inhibitor, partial curve, poor fit]",
COc1cccc([S+](=O)([O-])N2CCCC3(C2)C(=NC2CCCC2)NC(=O)N3c2cccnc2)c1 (configuration not stated),,inactive: 6.65% [at 6.33 µM]

SMILES,Potency,"activity change, negative = inhibition"
COc1ccccc1Cc1c(-c2ccc(OC)c(OC)c2)nc2c3ccccc3ccn12,"inconclusive: 112 µM [inhibitor, single point]",
Cc1ccc(OCC(=O)Nc2nonc2C)cc1C,inactive,
CCOc1cc(/C=C/C(=O)c2ccc(C)cc2)cc(Cl)c1O,active: 22.4 µM,
CCOc1ccccc1/C=C1\NC(=O)NC1=O,"inconclusive: 50.1 µM [inhibitor, partial curve, poor fit]",
CCS(=O)(=O)NC(C)C(=O)O (configuration not stated),inactive,
CC(=O)c1c(C(C)=O)c(C)n(-c2nc(-c3ccc(C)c(C)c3)c(C)s2)c1C,inactive,
Cc1ccc(C)c(OCC(=O)Nc2ccncc2)c1,"inconclusive: 112 µM [inhibitor, single point]",
CC1CN(C(=O)Nc2ccc(C(=O)NCCc3ccccc3)cc2)c2ccccc2S1 (configuration not stated),inactive,
C=CCn1c(-c2ccc3ncccc3c2)n[nH]c1=S,active: 28.2 µM,
COc1ccc(C(=O)c2cn[nH]c2-c2cc(Cl)ccc2O)cc1,"inconclusive: 63.1 µM [inhibitor, partial curve, poor fit]",
C/C=C/C=C/C(=O)N1CCN(CC(F)(F)F)CC1,"inconclusive: 126 µM [inhibitor, single point]",
COCC(C)n1c(C)cc(C(=O)Cn2cnc3c2c(=O)n(C)c(=O)n3C)c1C (configuration not stated),inactive,
CN(CC(=O)Nc1ccccc1Br)C(=O)CCn1c(=O)oc2ccccc21,"inconclusive: 100 µM [inhibitor, single point]",
O=c1[nH]c(=S)[nH]nc1Cc1ccccc1,"inconclusive: 56.2 µM [inhibitor, partial curve, poor fit]",
COC(=O)c1ccc(NC(=O)CSc2nnc(-c3ccccc3OC)n2-c2ccccc2)cc1,"inconclusive: 50.1 µM [inhibitor, single point]",
CCOc1ccc(NC(=O)CCc2c(C)c3ccc(C)cc3oc2=O)cc1,inactive,
Cc1cccc(C(=O)NCc2nnc(SCC(=O)NCc3ccccc3)n2-c2ccccc2)c1,"inconclusive: 39.8 µM [inhibitor, partial curve, poor fit]",
O=C(Cn1ncc2ccccc2c1=O)NC1CCCc2c1[nH]c1ccccc21 (configuration not stated),active: 28.2 µM,
CCC1(N2CCN(S(=O)(=O)c3ccc4c(c3)CCCC4)CC2)CCN(C(=O)C(C)C)C1 (configuration not stated),active: 22.4 µM,
Cc1[nH]c2ccccc2c1C(=O)C(C#N)C(=O)C1CC=CCC1 (configuration not stated),"inconclusive: 0.141 µM [inhibitor, full curve, poor fit]",
C[C@@H]1ON(C)[C@H]2C[C@H]3c4[nH]c5c(-c6ccccc6)cccc5c4CCN3C[C@@H]12,"inconclusive: 50.1 µM [inhibitor, partial curve, poor fit]",

# 6 entries drawn at random from the list so far:
SMILES,Potency,"activity change, negative = inhibition"
CCC1(N2CCN(S(=O)(=O)c3ccc4c(c3)CCCC4)CC2)CCN(C(=O)C(C)C)C1 (configuration not stated),active: 22.4 µM,
C/C=C/C=C/C(=O)N1CCN(CC(F)(F)F)CC1,"inconclusive: 126 µM [inhibitor, single point]",
CC(=O)c1c(C(C)=O)c(C)n(-c2nc(-c3ccc(C)c(C)c3)c(C)s2)c1C,inactive,
Cc1ccc(OCC(=O)Nc2nonc2C)cc1C,inactive,
COc1ccc(C(=O)c2cn[nH]c2-c2cc(Cl)ccc2O)cc1,"inconclusive: 63.1 µM [inhibitor, partial curve, poor fit]",
O=C(Cn1ncc2ccccc2c1=O)NC1CCCc2c1[nH]c1ccccc21 (configuration not stated),active: 28.2 µM,
